Taken from: PubChem BioAssay AID1259254 (NCATS, 2017)
Aim: 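Finding genes that stop cells copying their DNA twice in one cycle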 (primary screen). Cell system: human HCT116 colorectal cancer cells. Reagent: single siRNA against human genes. Timing: 3 days. Detection: 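Nuclei stained with Hoechst and imaged; cell-cycle phase assigned by DNA content; G2 share scaled per plate, non-targeting siRNA 0%, GMNN siRNA 100%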. Reading the numbers: G2 robust z-score and G2 cells, % of GMNN control: higher = more G2 cells, more excess DNA replication; raw share of cells in G2: higher = larger share of cells with G2 DNA content. Active means: 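Active siRNAs have a G2 robust z of 5 or more median absolute deviations over the median, which in these data means about 38% or higher of GMNN control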.
This is one part, drawn at random, of about 59,000 deposited reagents. In the full data, about 1,550 (2.6%) are marked active. 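G2 share is only a proxy for re-replication; each gene was hit by three separate siRNAs, and active genes were retested.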 Raw values are not corrected between plates. The record does not give: the amount of reagent.

| gene | PubChem SID | G2 robust z-score | G2 cells, % of GMNN control | raw share of cells in G2 (%) | outcome |
| --- | --- | --- | --- | --- | --- |
| RNF114 | SID160744616 | 0.124 | 3.84 | 4.15 | inactive |
| RNF114 | SID160744617 | 1.3 | 12.1 | 11.4 | inactive |
| RNF114 | SID160744618 | -0.932 | -3.59 | 2.51 | inactive |
| CTSL3P | SID160766754 | -0.98 | -3.93 | 4.19 | inactive |
| CTSL3P | SID160766755 | -1.43 | -7.1 | 2.39 | inactive |
| CTSL3P | SID160766756 | 0.0229 | 3.13 | 5.08 | inactive |
| STX19 | SID160767620 | -0.53 | -0.763 | 2.83 | inactive |
| STX19 | SID160767622 | -0.0802 | 2.4 | 4 | inactive |
| STX19 | SID160767623 | -1.05 | -4.4 | 1.98 | inactive |
| RPL17 | SID160716052 | 11.3 | 82.8 | 33.5 | active |
| RPL17 | SID160716053 | 3.17 | 25.3 | 14.3 | inactive |
| RPL17 | SID160716054 | 1.81 | 15.7 | 9.36 | inactive |
| NPTX1 | SID160731305 | 0.266 | 4.84 | 7.11 | inactive |
| NPTX1 | SID160778213 | -0.194 | 1.6 | 4.1 | inactive |
| NPTX1 | SID160778214 | 0.00223 | 2.98 | 4.19 | inactive |
| SERF1B | SID160728034 | 0.0389 | 3.24 | 4.77 | inactive |
| SERF1B | SID160728036 | -0.8 | -2.66 | 1.93 | inactive |
| SERF1B | SID160728037 | -0.574 | -1.07 | 3.19 | inactive |
| LINC00926 | SID160724989 | -0.435 | -0.0954 | 3.01 | inactive |
| LINC00926 | SID160724990 | 0.286 | 4.98 | 4.78 | inactive |
| LINC00926 | SID160763008 | 0.308 | 5.13 | 5.51 | inactive |
| COX7A1 | SID160730599 | -0.553 | -0.926 | 3.78 | inactive |
| COX7A1 | SID160746986 | 0.46 | 6.2 | 7.18 | inactive |
| COX7A1 | SID160746998 | 4.61 | 35.4 | 17.9 | inactive |
| OLAH | SID160743486 | -0.0267 | 2.78 | 5.49 | inactive |
| OLAH | SID160743487 | -1.36 | -6.6 | 2.08 | inactive |
| OLAH | SID160743488 | -0.994 | -4.03 | 4.67 | inactive |
| KRTAP4-5 | SID160753161 | 0.553 | 6.86 | 6.99 | inactive |
| KRTAP4-5 | SID160753162 | 1.14 | 11 | 6.44 | inactive |
| KRTAP4-5 | SID160753163 | 2.45 | 20.2 | 9.33 | inactive |
| TMEM109 | SID160748584 | 0.516 | 6.6 | 7.45 | inactive |
| TMEM109 | SID160748585 | -0.437 | -0.106 | 4.56 | inactive |
| TMEM109 | SID160748586 | 0.318 | 5.21 | 4.07 | inactive |
| SEMG1 | SID160716566 | -0.872 | -3.17 | 3.62 | inactive |
| SEMG1 | SID160716567 | -0.153 | 1.89 | 4.97 | inactive |
| SEMG1 | SID160716568 | 0.0562 | 3.36 | 4.57 | inactive |
| MOSPD1 | SID160744935 | 1.1 | 10.7 | 8.57 | inactive |
| MOSPD1 | SID160744936 | -0.629 | -1.46 | 3.76 | inactive |
| MOSPD1 | SID160744937 | -0.489 | -0.476 | 2.88 | inactive |
| ENOPH1 | SID160746812 | 0.677 | 7.73 | 7.39 | inactive |
| ENOPH1 | SID160746813 | -0.731 | -2.18 | 3.42 | inactive |
| ENOPH1 | SID160746814 | -0.901 | -3.37 | 1.96 | inactive |
| NRROS | SID160765430 | 2.42 | 20 | 14.6 | inactive |
| NRROS | SID160765431 | -0.94 | -3.64 | 3.54 | inactive |
| NRROS | SID160765432 | -0.697 | -1.94 | 3.58 | inactive |
| PMP22 | SID160714540 | 1.25 | 11.7 | 9.96 | inactive |
| PMP22 | SID160714541 | -1.22 | -5.62 | 2 | inactive |
| PMP22 | SID160733529 | 0.226 | 4.55 | 5 | inactive |
| TEX47 | SID160761304 | -0.484 | -0.436 | 3.42 | inactive |
| TEX47 | SID160761305 | -0.048 | 2.63 | 4.03 | inactive |
| TEX47 | SID160761306 | -0.497 | -0.528 | 3.03 | inactive |

Next part; the last 10 above are carried over.
| gene | PubChem SID | G2 robust z-score | G2 cells, % of GMNN control | raw share of cells in G2 (%) | outcome |
| --- | --- | --- | --- | --- | --- |
| ENOPH1 | SID160746814 | -0.901 | -3.37 | 1.96 | inactive |
| NRROS | SID160765430 | 2.42 | 20 | 14.6 | inactive |
| NRROS | SID160765431 | -0.94 | -3.64 | 3.54 | inactive |
| NRROS | SID160765432 | -0.697 | -1.94 | 3.58 | inactive |
| PMP22 | SID160714540 | 1.25 | 11.7 | 9.96 | inactive |
| PMP22 | SID160714541 | -1.22 | -5.62 | 2 | inactive |
| PMP22 | SID160733529 | 0.226 | 4.55 | 5 | inactive |
| TEX47 | SID160761304 | -0.484 | -0.436 | 3.42 | inactive |
| TEX47 | SID160761305 | -0.048 | 2.63 | 4.03 | inactive |
| TEX47 | SID160761306 | -0.497 | -0.528 | 3.03 | inactive |
| NUDT16L1 | SID160752123 | -0.261 | 1.13 | 4.48 | inactive |
| NUDT16L1 | SID160752124 | -0.761 | -2.39 | 2.75 | inactive |
| NUDT16L1 | SID160752125 | 3.51 | 27.6 | 10.8 | inactive |
| SPINK14 | SID160767567 | 0.924 | 9.47 | 10 | inactive |
| SPINK14 | SID160767568 | -0.762 | -2.39 | 4.03 | inactive |
| SPINK14 | SID160767569 | 0.244 | 4.68 | 5.99 | inactive |
| ACOT8 | SID160723761 | 0.285 | 4.97 | 4.9 | inactive |
| ACOT8 | SID160723769 | -1.05 | -4.44 | 2.95 | inactive |
| ACOT8 | SID160723776 | 2.19 | 18.4 | 12.1 | inactive |
| FAM43A | SID160732475 | -0.665 | -1.71 | 1.96 | inactive |
| FAM43A | SID160757082 | -0.393 | 0.2 | 4.25 | inactive |
| FAM43A | SID160757083 | -0.684 | -1.84 | 2.52 | inactive |
| BTF3P16 | SID160768876 | -0.479 | -0.403 | 3.48 | inactive |
| BTF3P16 | SID160768877 | 0.188 | 4.29 | 4.81 | inactive |
| BTF3P16 | SID160768878 | -0.263 | 1.12 | 3.47 | inactive |
| OSCP1 | SID160732436 | -0.702 | -1.97 | 1.87 | inactive |
| OSCP1 | SID160756665 | -0.544 | -0.858 | 3.85 | inactive |
| OSCP1 | SID160756666 | 3.58 | 28.2 | 12 | inactive |
| ULBP1 | SID160750401 | -0.104 | 2.24 | 5.37 | inactive |
| ULBP1 | SID160750402 | -0.693 | -1.91 | 3.47 | inactive |
| ULBP1 | SID160750403 | 0.622 | 7.34 | 4.39 | inactive |
| CLCF1 | SID160736483 | 0.174 | 4.19 | 5.99 | inactive |
| CLCF1 | SID160736484 | -0.462 | -0.28 | 3.82 | inactive |
| CLCF1 | SID160736485 | 0.0221 | 3.12 | 4.39 | inactive |
| STXBP6 | SID160739044 | 0.155 | 4.06 | 5.4 | inactive |
| STXBP6 | SID160739045 | -0.309 | 0.795 | 4.85 | inactive |
| STXBP6 | SID160739046 | -0.239 | 1.28 | 3.66 | inactive |
| KDM4C | SID160732739 | 0.672 | 7.7 | 6.05 | inactive |
| KDM4C | SID160735402 | -0.45 | -0.2 | 4.91 | inactive |
| KDM4C | SID160735404 | 1.12 | 10.8 | 8.61 | inactive |
| EPS8 | SID160761330 | -0.443 | -0.148 | 5.21 | inactive |
| EPS8 | SID160761340 | 4.7 | 36 | 16.5 | inactive |
| EPS8 | SID160761350 | 0.231 | 4.59 | 6.9 | inactive |
| OTUD3 | SID160735838 | 1.79 | 15.5 | 11.1 | inactive |
| OTUD3 | SID160735839 | -0.58 | -1.11 | 3.68 | inactive |
| OTUD3 | SID160735842 | 2.28 | 19 | 10.3 | inactive |
